Reference: publication PMC10379624
No constants are given. Whether binding was seen depends on the method and setting. In cells and extracts the contact can be indirect. Some binding calls cover weakened binding; strength is not graded here. Tags and fused reporters may be left off the sequences shown.

Chains of the proteins cited; added tags and fusions are not shown.
UniProt P13864: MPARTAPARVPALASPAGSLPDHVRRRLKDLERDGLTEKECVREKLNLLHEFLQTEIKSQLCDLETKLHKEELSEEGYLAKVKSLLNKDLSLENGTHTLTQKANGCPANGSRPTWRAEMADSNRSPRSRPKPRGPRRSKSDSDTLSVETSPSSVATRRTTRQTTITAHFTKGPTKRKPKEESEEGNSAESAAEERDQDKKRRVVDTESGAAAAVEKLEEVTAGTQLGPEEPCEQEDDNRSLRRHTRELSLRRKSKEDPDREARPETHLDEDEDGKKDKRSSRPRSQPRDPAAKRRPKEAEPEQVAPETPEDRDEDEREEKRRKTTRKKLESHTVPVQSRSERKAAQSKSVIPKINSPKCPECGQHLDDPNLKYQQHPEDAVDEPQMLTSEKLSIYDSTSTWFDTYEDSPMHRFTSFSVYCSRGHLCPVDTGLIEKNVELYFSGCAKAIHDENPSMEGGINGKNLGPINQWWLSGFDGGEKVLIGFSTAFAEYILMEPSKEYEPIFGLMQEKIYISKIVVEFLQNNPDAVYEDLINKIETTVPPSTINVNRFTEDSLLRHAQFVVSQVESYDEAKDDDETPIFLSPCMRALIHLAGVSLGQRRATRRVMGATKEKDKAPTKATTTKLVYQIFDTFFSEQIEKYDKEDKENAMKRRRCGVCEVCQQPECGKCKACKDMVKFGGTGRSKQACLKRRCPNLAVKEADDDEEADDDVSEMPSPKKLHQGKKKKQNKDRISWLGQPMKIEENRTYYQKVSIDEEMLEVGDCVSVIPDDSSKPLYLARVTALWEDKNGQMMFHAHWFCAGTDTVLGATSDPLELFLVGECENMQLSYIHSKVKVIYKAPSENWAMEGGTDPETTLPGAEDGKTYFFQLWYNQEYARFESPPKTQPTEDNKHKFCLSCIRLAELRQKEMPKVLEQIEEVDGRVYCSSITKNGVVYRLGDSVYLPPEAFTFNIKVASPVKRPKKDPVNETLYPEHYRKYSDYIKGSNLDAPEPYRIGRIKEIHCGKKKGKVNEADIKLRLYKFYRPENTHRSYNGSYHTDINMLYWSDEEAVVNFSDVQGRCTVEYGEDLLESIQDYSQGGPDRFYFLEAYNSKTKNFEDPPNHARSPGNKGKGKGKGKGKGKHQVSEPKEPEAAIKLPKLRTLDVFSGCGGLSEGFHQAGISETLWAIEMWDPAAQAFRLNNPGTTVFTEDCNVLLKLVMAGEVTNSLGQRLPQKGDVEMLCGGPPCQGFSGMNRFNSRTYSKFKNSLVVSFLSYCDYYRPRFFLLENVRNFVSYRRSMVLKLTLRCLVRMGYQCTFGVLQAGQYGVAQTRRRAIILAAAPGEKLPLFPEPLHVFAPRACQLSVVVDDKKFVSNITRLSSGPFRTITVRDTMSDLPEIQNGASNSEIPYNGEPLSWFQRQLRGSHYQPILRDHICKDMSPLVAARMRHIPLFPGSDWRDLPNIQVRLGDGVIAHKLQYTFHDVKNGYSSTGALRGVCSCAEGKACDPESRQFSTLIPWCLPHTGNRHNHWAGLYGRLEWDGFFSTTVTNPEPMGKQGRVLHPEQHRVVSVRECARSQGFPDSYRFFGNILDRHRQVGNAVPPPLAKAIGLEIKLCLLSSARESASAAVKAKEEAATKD
UniProt Q80Y84: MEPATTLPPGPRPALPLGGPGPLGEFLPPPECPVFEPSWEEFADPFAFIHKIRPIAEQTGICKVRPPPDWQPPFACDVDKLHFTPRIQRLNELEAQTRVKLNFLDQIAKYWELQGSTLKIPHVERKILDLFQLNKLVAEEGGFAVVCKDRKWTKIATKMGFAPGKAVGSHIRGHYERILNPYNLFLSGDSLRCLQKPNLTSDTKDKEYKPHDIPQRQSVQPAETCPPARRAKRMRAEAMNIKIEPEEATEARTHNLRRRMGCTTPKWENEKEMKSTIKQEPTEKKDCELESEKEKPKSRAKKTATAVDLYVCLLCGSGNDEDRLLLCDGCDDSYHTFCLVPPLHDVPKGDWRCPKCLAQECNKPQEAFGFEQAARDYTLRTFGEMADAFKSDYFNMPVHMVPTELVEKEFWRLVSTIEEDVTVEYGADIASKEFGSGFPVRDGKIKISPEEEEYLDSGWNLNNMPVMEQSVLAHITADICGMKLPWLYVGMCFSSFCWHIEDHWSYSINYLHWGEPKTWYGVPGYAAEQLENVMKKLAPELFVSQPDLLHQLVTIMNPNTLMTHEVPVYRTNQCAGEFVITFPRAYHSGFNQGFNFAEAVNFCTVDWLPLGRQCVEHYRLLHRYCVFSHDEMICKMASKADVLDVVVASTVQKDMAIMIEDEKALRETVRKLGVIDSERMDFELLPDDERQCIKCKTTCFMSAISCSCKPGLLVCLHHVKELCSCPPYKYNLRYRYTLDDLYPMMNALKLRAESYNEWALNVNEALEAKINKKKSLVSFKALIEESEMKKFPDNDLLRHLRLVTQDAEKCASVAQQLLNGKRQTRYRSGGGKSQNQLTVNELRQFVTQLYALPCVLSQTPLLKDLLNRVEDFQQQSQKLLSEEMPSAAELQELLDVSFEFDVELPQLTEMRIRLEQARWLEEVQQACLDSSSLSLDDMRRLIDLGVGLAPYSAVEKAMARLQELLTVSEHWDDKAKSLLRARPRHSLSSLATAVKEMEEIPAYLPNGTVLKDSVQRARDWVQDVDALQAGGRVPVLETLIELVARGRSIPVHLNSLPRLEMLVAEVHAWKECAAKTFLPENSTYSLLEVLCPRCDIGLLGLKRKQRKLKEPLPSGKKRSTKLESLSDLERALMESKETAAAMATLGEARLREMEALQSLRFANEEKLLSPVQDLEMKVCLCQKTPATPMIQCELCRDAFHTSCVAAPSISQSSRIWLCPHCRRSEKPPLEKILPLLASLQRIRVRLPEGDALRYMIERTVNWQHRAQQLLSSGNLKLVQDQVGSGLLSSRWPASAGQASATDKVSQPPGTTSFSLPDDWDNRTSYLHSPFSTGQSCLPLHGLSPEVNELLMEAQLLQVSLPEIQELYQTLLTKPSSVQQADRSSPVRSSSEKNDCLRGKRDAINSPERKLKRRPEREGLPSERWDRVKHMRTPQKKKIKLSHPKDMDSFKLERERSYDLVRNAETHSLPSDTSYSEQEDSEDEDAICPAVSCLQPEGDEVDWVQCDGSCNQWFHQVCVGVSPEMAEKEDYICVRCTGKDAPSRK
UniProt P83917: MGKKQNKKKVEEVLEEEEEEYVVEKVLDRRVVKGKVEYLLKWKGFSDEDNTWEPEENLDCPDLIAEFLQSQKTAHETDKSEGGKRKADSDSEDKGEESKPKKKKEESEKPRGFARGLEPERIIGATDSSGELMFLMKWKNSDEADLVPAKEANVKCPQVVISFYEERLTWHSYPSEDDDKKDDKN
UniProt Q3TKT4: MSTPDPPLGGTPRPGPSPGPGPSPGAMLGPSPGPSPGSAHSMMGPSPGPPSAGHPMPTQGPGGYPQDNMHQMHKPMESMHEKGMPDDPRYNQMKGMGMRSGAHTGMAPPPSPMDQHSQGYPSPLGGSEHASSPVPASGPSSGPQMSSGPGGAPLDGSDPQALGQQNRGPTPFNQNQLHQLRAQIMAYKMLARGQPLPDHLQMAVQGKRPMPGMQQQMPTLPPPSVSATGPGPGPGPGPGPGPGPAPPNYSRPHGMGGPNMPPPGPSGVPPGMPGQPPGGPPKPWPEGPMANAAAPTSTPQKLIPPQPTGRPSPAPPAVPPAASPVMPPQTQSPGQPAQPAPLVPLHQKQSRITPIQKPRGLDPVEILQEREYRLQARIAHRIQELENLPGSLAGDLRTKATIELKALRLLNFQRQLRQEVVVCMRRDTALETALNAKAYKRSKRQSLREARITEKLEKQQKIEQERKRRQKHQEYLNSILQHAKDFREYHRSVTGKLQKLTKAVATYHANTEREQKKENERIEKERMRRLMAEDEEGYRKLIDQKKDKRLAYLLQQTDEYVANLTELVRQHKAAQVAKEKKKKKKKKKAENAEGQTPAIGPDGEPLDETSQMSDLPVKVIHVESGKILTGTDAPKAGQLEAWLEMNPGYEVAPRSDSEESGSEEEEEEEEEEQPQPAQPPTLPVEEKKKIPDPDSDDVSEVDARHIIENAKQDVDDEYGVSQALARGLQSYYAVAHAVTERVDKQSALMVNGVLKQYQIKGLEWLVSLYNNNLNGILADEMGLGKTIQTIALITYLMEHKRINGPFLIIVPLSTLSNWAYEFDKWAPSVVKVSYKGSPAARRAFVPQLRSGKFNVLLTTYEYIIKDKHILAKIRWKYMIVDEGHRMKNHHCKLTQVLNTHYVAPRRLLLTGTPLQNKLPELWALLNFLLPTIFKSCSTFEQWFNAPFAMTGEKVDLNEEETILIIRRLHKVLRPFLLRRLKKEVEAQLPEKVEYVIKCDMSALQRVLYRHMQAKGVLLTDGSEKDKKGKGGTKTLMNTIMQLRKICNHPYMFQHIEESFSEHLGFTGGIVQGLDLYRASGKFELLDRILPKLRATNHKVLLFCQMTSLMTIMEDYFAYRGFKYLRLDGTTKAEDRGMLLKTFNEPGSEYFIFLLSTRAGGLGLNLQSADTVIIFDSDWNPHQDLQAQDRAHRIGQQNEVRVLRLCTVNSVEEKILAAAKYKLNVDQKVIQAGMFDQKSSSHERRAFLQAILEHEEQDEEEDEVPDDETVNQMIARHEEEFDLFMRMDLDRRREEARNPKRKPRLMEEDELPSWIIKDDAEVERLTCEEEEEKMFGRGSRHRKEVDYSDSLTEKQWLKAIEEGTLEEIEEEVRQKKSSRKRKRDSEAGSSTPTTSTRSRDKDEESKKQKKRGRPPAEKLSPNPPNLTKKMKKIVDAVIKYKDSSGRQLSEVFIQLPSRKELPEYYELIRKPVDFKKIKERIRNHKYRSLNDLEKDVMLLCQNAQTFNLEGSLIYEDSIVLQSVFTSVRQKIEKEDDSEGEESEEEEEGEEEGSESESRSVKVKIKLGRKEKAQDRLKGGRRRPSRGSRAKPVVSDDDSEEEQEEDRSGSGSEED

Key:
[1] = molecular target: T1, Avidin-tagged ZFP296 (Zfp296-Bio) (mouse) (UniProt E9Q6W4); assay: co-IP; Avidin-tagged ZFP296 (Zfp296-Bio) co-expressed with the tagged partner in HEK-293T cells; whole-cell extract; capture on Dynabeads MyOne Streptavidin C1; Western blot; called co-immunoprecipitation by the paper
T1 sequence: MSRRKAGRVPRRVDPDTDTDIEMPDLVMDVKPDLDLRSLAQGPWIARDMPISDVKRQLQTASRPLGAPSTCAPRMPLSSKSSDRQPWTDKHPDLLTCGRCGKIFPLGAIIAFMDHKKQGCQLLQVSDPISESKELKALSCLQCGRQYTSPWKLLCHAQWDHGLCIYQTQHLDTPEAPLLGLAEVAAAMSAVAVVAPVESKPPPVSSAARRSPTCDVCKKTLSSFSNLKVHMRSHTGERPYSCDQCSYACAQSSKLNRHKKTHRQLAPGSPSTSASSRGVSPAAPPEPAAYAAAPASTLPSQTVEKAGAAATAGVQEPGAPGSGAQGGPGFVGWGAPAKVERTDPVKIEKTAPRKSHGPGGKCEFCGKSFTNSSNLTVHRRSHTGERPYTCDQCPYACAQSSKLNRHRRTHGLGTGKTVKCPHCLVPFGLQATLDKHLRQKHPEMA

[2] = molecular target: T2, Myc-tagged ZFP296 (zinc finger protein 296), full length (mouse) (UniProt E9Q6W4); assay: co-IP; Myc-tagged ZFP296 co-expressed with the tagged partner in HEK-293T cells; whole-cell extract in IP Lysis Buffer; Myc mAb overnight at 4 °C, Protein A/G agarose; control IgG; Western blot
T2 sequence: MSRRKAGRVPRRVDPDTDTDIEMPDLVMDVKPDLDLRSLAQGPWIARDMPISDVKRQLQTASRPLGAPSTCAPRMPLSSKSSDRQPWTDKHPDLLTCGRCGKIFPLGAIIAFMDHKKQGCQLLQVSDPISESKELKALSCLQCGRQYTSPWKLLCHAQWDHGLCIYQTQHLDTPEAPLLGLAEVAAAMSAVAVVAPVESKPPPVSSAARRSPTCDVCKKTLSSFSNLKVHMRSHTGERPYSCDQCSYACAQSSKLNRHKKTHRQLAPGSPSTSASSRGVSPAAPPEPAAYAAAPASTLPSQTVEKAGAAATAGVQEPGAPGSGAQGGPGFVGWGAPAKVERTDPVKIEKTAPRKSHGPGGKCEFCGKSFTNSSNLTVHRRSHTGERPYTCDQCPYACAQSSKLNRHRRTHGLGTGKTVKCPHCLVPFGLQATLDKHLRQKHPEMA

Molecule: Flag-tagged DNMT1 (DNA methyltransferase 1) (from UniProt P13864 1-1620)
- binding [1]: binds

Molecule: Flag-tagged KDM5B (lysine demethylase 5B) (from UniProt Q80Y84 1-1544)
- binding [2]: binds

Molecule: HA-tagged HP1β (chromobox 1) (from UniProt P83917 1-185)
- binding [1]: binds

Molecule: HA-tagged SMARCA4 (SWI/SNF-related, matrix-associated, actin-dependent regulator of chromatin, subfamily a, member 4) (from UniProt Q3TKT4 1-1613)
- binding [2]: binds

B1: HA-tagged UHRF1 (ubiquitin-like with PHD and ring finger domains 1) (protein, UniProt Q8VDF2 1-782)
chain: MWIQVRTMDGKETHTVNSLSRLTKVQELRKKIEEVFHVEPQLQRLFYRGKQMEDGHTLFDYDVRLNDTIQLLVRQSLALPLSTKERDSELSDSDSGYGVGHSESDKSSTHGEGAAEADDKTVWEDTDLGLYKVNEYVDVRDNIFGAWFEAQVVQVQKRALSEDEPCSSSAVKTSEDDIMYHVKYDDYPEHGVDIVKAKNVRARARTVIPWENLEVGQVVMANYNVDYPRKRGFWYDVEICRKRQTRTARELYGNIRLLNDSQLNNCRIMFVDEVLMIELPKERRPLIASPSQPPPALRNTGKSGPSCRFCKDDENKPCRKCACHVCGGREAPEKQLLCDECDMAFHLYCLKPPLTSVPPEPEWYCPSCRTDSSEVVQAGEKLKESKKKAKMASATSSSRRDWGKGMACVGRTTECTIVPANHFGPIPGVPVGTMWRFRVQVSESGVHRPHVAGIHGRSNDGAYSLVLAGGYEDDVDNGNYFTYTGSGGRDLSGNKRTAGQSSDQKLTNNNRALALNCHSPINEKGAEAEDWRQGKPVRVVRNMKGGKHSKYAPAEGNRYDGIYKVVKYWPERGKSGFLVWRYLLRRDDTEPEPWTREGKDRTRQLGLTMQYPEGYLEALANKEKSRKRPAKALEQGPSSSKTGKSKQKSTGPTLSSPRASKKSKLEPYTLSEQQANLIKEDKGNAKLWDDVLTSLQDGPYQIFLSKVKEAFQCICCQELVFRPVTTVCQHNVCKDCLDRSFRAQVFSCPACRFELDHSSPTRVNQPLQTILNQLFPGYGSGR
- binding [1]: binds
